This passage reports slope results from patent US5262421A, “Use of dicentrine and its derivatives for the treatment of hypertension, arrhythmia, thrombosis and atherosclerosis” (National Science Council, priority 1991, dated 1993).

The test system of the data set is α1-adrenoceptor (rat thoracic aortae). As to the kind of experiment: Schild analysis of α1-adrenoceptor antagonism: norepinephrine- and phenylephrine-induced contraction of rat thoracic aortae. As to conditions: mean with 95% confidence limits.

Consider `COc1cc2c(cc1OC)-c1c3c(cc4c1[C@H](C2)N(C)CC4)OCO3` [dicentrine], for which the slope was 0.94 (0.85-1.2) (agonist norepinephrine) and 0.94 (0.95-1.32) (agonist phenylephrine).

With `COc1cc2nc(N3CCN(C(=O)c4ccco4)CC3)nc(N)c2cc1OC` [prazosin, reference compound], where the note is “agonist phenylephrine”, the slope is on record as 0.95 (0.94-1.24).

Turning to `COC(=O)[C@@H]1[C@H]2C[C@H]3c4[nH]c5ccccc5c4CCN3C[C@@H]2CC[C@@H]1O` [yohimbine, reference compound], for the setting “agonist phenylephrine”, the slope is reported as 0.84 (0.65-1.03).

`Cc1ccc(N(CC2=NCCN2)c2cccc(O)c2)cc1` [phentolamine, reference compound]: where the note is “agonist phenylephrine”, the slope was 0.72 (0.71-1.20).
